Assay: Endotoxin removal of gamma-cyclodextrin by filtration
Details: 8% gamma cyclodextrin solution

OC[C@H]1O[C@@H]2O[C@H]3[C@H](O)[C@@H](O)[C@@H](O[C@H]4[C@H](O)[C@@H](O)[C@@H](O[C@H]5[C@H](O)[C@@H](O)[C@@H](O[C@H]6[C@H](O)[C@@H](O)[C@@H](O[C@H]7[C@H](O)[C@@H](O)[C@@H](O[C@H]8[C@H](O)[C@@H](O)[C@@H](O[C@H]9[C@H](O)[C@@H](O)[C@@H](O[C@H]1[C@H](O)[C@H]2O)O[C@@H]9CO)O[C@@H]8CO)O[C@@H]7CO)O[C@@H]6CO)O[C@@H]5CO)O[C@@H]4CO)O[C@@H]3CO [gamma cyclodextrin]
Endotoxin levels (after 1 filtration): 0.0246 EU/mg of cyclodextrin
Endotoxin levels (after 2 filtrations): 0.0125 EU/mg of cyclodextrin
Endotoxin levels (after 3 filtrations): 0.0125 EU/mg of cyclodextrin
Endotoxin levels (prefiltered): 0.226 EU/mg of cyclodextrin
